# Results taken from PubChem BioAssay AID624291 (National Center for Advancing Translational Sciences (NCATS), 2012).
# About 220 (0.063%) of roughly 350,000 compounds were called active. Inconclusive means that the source gave no clear call. Such entries were picked first, then a sample of the others. Calls come from the whole dose curve; as a rule, active = well fitted activation curve with a large enough effect; inconclusive = small, poorly fitted or top-dose-only effect; inactive = no such curve, though single readings can be large or run the other way. A potency beside an inconclusive call is a rough fit, not a confirmed value.
# Test: qHTS for Activators of Integrin-Mediated Alleviation for Muscular Dystrophy; note: nearly all actives have a fitted effect of over 60% in size;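 for activation: 100% = response of the positive control SU9516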
# Details: alpha7betagal myoblasts, beta-gal FDG fluorescence, 48 h; activation: at 38.3 µM (top of the series)
# Procedure, shortened: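 alpha7betagal+/- myoblasts (passage 13, 250/well) treated 48 h at 37C with compounds at 1:260 dilution of DMSO stock. Lysed, then beta-galactosidase activity read as FDG fluorescence (ex 480/em 540) after 30 min, with pre-read for autofluorescence.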
# Potency is the fitted concentration of half-maximal effect.
SMILES,Potency,activation
CSc1ccc(CN2C(=O)NC3(CCCCCCC3)C2=O)cc1,"inconclusive: 22.4 µM [activator, single point]",
COC(=O)c1ccccc1NC(=O)c1ccc(-c2ccc(Br)cc2)o1,"inconclusive: 31.6 µM [activator, partial curve, poor fit]",
Cc1cc(C)cc(N2C(=O)C3CCCN3C2=S)c1 (configuration not stated),"inconclusive: 3.16 µM [activator, single point]",
CCOC(=O)c1[nH]c2ccc(OC)cc2c1NC(=O)CN1CCSCC1,,inactive: -10.7%
CCC(C)/C(C)=N/NC(=O)CNS(=O)(=O)c1ccc([N+](=O)[O-])cc1 (configuration not stated),"inconclusive: 8.91 µM [activator, partial curve, poor fit]",
COCCOC1CCN(C(=O)C2CCC(=O)N(CCc3ccc(OC)cc3)C2)CC1 (configuration not stated),"inconclusive: 3.98 µM [activator, single point]",
Cc1ccc(N=C(NOCc2ccc(Cl)cc2Cl)c2nonc2N)c(C)c1,,inactive: -34.3%
O=C(Nc1ccc(SC(F)(F)F)cc1)c1ccccn1,"inconclusive: 3.55 µM [activator, single point]",
COc1ccc(NC(=O)CN(C)C(=O)CCC2CCCC2)cc1,,inactive: -7.9%
CC(C)(C)N1C(=O)Cc2c1nc(N)c1c(N)nc(N3CCCCC3CO)c(C#N)c21 (configuration not stated),,inactive: -14.3%
CCCCN(C)CCNC(=O)CSCc1ccc(C)cc1,"inconclusive: 5.01 µM [activator, single point]",
CNc1nc2c(-c3ccc(Cl)cc3)nnn2c2ccccc12,"inconclusive: 28.2 µM [activator, single point]",
Cc1ccc(C)c(N2CCN(S(=O)(=O)c3cccc4cccnc34)CC2)c1,,inactive: 7.09%
CCc1nc(C(N)=O)c2[nH]c(=O)n(-c3ccccc3F)c2n1,"inconclusive: 4.47 µM [activator, single point]",
Cc1ccccc1NC(=S)N(Cc1cccs1)C1CCCC1,,inactive: 8.45%
CC(=O)Nc1cccc(NC(=O)c2cccc(OCc3ccccc3)c2)c1,"inconclusive: 28.2 µM [activator, single point]",
Cc1ccc(S(=O)(=O)NCc2ccc3c(c2)OCO3)cc1C,"inconclusive: 1 µM [activator, partial curve, poor fit]",
Cc1cc(Nc2cccc(Cl)c2)nc(NCc2ccccc2)n1,,inactive: -43.8%
O=C(O)Cn1c(=O)c2c(c3ccccc31)CCC2,"inconclusive: 28.2 µM [activator, single point]",
COC(=O)[C@H](Cc1ccccc1)NC(=O)NCCc1ccc(OC)cc1,"inconclusive: 5.62 µM [activator, partial curve, poor fit]",
CN(C)CCNC(=O)c1[nH]nc2c1CCc1ccccc1-2,"inconclusive: 2.24 µM [activator, single point]",
NC(=O)C1CCN(C(=O)c2ccc([N+](=O)[O-])cc2NC(=O)c2cccs2)CC1,"inconclusive: 3.98 µM [activator, partial curve, poor fit]",
Cc1onc(-c2ccccc2)c1C(=O)N1CCCCCC1,"inconclusive: 3.55 µM [activator, single point]",

SMILES,Potency,activation
Cc1cc(=O)oc2cc(NC(=O)c3cc([N+](=O)[O-])ccc3N3CCOCC3)ccc12,"inconclusive: 5.01 µM [activator, single point]",
CCC(=O)Nc1c(-c2ccc(Cl)cc2)c(=O)c2ccccc2n1C,"inconclusive: 2 µM [activator, partial curve, poor fit]",
COc1ccccc1N1CCN(Cc2cccs2)CC1,,inactive: 3.95%
COc1ccc(S(=O)(=O)N2CCCC(C(=O)NCC3CCCO3)C2)cc1OC (configuration not stated),"inconclusive: 1.78 µM [activator, single point]",
C=CCNC(=S)NNC(=O)c1ccc(OC(C)C)cc1,"inconclusive: 2 µM [activator, partial curve, poor fit]",
N#CCCS(=O)(=O)c1ccc(N)cc1,"inconclusive: 7.94 µM [activator, partial curve, poor fit]",
O=C(Nc1ccc(N2CCN(C(=O)c3cccs3)CC2)cc1)c1ccccc1F,"inconclusive: 2.82 µM [activator, single point]",
O=C1CCC(NC(=O)c2ccccc2)C(=O)N1 (configuration not stated),"inconclusive: 0.398 µM [activator, full curve, poor fit]",
O=C(CSc1nc(O)cc(=O)n1-c1ccccc1)Nc1ccc(Br)cn1,"inconclusive: 8.91 µM [activator, single point]",
COc1cc2c(cc1OC)C(c1ccccc1C)CC(=O)N2 (configuration not stated),,inactive: 44.6%
Cc1cc(C)nc(SCc2ccc(C(=O)NN=C3CCCC3)cc2)n1,"inconclusive: 28.2 µM [activator, single point]",
Clc1cccc(CN2CCCCCC2)c1,"inconclusive: 1 µM [activator, partial curve, poor fit]",
NC(=O)C[n+]1cccc(C(=O)Nc2ccccc2)c1,"inconclusive: 31.6 µM [activator, single point]",
O=C(c1cccn2c(=O)c3cc(Cl)ccc3nc12)N1CCN(Cc2ccc3c(c2)OCO3)CC1,"inconclusive: 11.2 µM [activator, single point]",
O=C(/C=C/c1cccc(Oc2ccccc2)c1)N1CCOCC1,,inactive: 10.2%
CCOc1ccc(N(CC(=O)NC2CCCC2)S(=O)(=O)c2c(C)[nH]c(=O)[nH]c2=O)cc1,,inactive: -14.7%
O=C(Nc1nnc(SCc2ccc(F)cc2)s1)c1ccc2ncsc2c1,"inconclusive: 5.01 µM [activator, single point]",
N#C/C(=N\Nc1ccc(F)cc1)C(=N)N1CCCCC1,,inactive: 13.1%
Cc1ccc(C(=O)COc2ncnc3cc(Cl)ccc23)cc1,"inconclusive: 28.2 µM [activator, single point]",
O=C(Nc1ccc(N2CCOCC2)cc1)C1CCN(S(=O)(=O)c2ccccc2F)CC1,"inconclusive: 4.47 µM [activator, single point]",
Cn1nc(CC(=O)N2CCN(c3ccccc3)CC2)c2ccccc2c1=O,,inactive: 9.8%
O=C(NNC(=O)c1ccc([N+](=O)[O-])cc1)NC1CCCCC1,"inconclusive: 28.2 µM [activator, single point]",
CC(C)(C)OC(=O)N1CCN(c2ccc([N+](=O)[O-])cc2)CC1,"inconclusive: 8.91 µM [activator, partial curve, poor fit]",

# Sorted by formula weight (rising): some entries from above
SMILES,Potency,activation
N#CCCS(=O)(=O)c1ccc(N)cc1,"inconclusive: 7.94 µM [activator, partial curve, poor fit]",
O=C(O)Cn1c(=O)c2c(c3ccccc31)CCC2,"inconclusive: 28.2 µM [activator, single point]",
CCOC(=O)c1[nH]c2ccc(OC)cc2c1NC(=O)CN1CCSCC1,,inactive: -10.7%
O=C(Nc1nnc(SCc2ccc(F)cc2)s1)c1ccc2ncsc2c1,"inconclusive: 5.01 µM [activator, single point]",

# Continuation.

SMILES,Potency,activation
CC12CCC(C(=O)NNc3ccc([N+](=O)[O-])cc3)(OC1=O)C2(C)C (configuration not stated),"inconclusive: 0.447 µM [activator, partial curve, poor fit]",
COC(=O)N/N=C/c1ccccc1Cl,"inconclusive: 3.16 µM [activator, full curve, poor fit]",
C/C(=N\NC(=O)c1nc2ccccn2c1C)c1cccc([N+](=O)[O-])c1,"inconclusive: 11.2 µM [activator, partial curve, poor fit]",
COc1ccc(C)cc1NC(=O)c1cc(S(=O)(=O)N2CCCCC2)ccc1N1CCOCC1,"inconclusive: 3.16 µM [activator, full curve, poor fit]",
O=C(O)/C=C/C(=O)Nc1nccs1,"inconclusive: 3.16 µM [activator, full curve, poor fit]",
Cc1cccc(NC(=O)c2ccc(N3C(=O)C4CCCCC4C3=O)cc2)c1C (configuration not stated),"inconclusive: 4.47 µM [activator, partial curve]",
COCc1c(C(=O)NCc2ccccc2CN2CCCC2)oc2ccccc12,"inconclusive: 5.01 µM [activator, single point]",
Cc1cc(S(=O)(=O)N2CCOCC2)ccc1OCC(=O)Nc1ccc(F)cc1F,"inconclusive: 11.2 µM [activator, single point]",
Cc1c(Cl)cccc1NS(=O)(=O)c1ccc(-c2ccc(=O)[nH]n2)o1,"inconclusive: 28.2 µM [activator, single point]",
CC1CCN(CC(=O)NNC(=O)c2cccc(Br)c2)CC1,,inactive: -19.6%
C/C(CC1CC(C)(C)OC1=O)=N\NC(N)=S (configuration not stated),,inactive: 6.33%
Cc1ccccc1OC(C)C(=O)Nc1ccc2c(c1)OCCO2 (configuration not stated),"inconclusive: 5.01 µM [activator, partial curve, poor fit]",
O=C(Nc1ccc(F)cc1)c1cccc(N2C(=O)c3ccccc3C2=O)c1,"inconclusive: 12.6 µM [activator, partial curve, poor fit]",
COc1ccc(/C=N/NC(=S)NC2CCS(=O)(=O)C2)cc1 (configuration not stated),"inconclusive: 2.82 µM [activator, single point]",
Cc1n[nH]c(=O)c2c(NC(=O)CSc3ccccc3Cl)oc(C)c12,"inconclusive: 5.01 µM [activator, single point]",
COCCn1c(SCC(=O)Nc2ccccc2)nc2c1c(=O)[nH]c(=O)n2C,,inactive: 16.9%
COC(=O)Nc1ccc(S(=O)(=O)n2cnc3ccccc32)cc1,"inconclusive: 22.4 µM [activator, partial curve, poor fit]",
Cn1nccc1C(=O)N1CCCC(C(=O)c2ccc(Oc3ccccc3)cc2)C1 (configuration not stated),"inconclusive: 5.01 µM [activator, single point]",
CC(C)(C)c1ccc(NC(=O)c2ccccc2)c([N+](=O)[O-])c1,"inconclusive: 28.2 µM [activator, single point]",
Cc1ccc(/C=C2\SC(=S)N(CCCC(=O)Nc3cccc(C(=O)O)c3)C2=O)cc1,"inconclusive: 2.82 µM [activator, single point]",
O=C(COc1ccc(Cl)cc1Cl)N1CCNC1=O,"inconclusive: 28.2 µM [activator, single point]",
